Laboratory results reported in PMC7950113.
Results are given in words; binding and its absence hold for the method and conditions named. In cells and extracts the contact can be indirect. A yes stands for co-enrichment or nearness to the bait. Other partners may have been found.

By UniProt entry, the sequences of proteins in these tests, tags left out. Where a name states a change or a piece, a line headed by the entry shows the natural chain unless it says otherwise. Chains listed by the source or under a name are the forms on record and can include a tag or linker. Residues count along the entry.
FLAG-tagged thyroglobulin, WT (P01266, residues 20-2768): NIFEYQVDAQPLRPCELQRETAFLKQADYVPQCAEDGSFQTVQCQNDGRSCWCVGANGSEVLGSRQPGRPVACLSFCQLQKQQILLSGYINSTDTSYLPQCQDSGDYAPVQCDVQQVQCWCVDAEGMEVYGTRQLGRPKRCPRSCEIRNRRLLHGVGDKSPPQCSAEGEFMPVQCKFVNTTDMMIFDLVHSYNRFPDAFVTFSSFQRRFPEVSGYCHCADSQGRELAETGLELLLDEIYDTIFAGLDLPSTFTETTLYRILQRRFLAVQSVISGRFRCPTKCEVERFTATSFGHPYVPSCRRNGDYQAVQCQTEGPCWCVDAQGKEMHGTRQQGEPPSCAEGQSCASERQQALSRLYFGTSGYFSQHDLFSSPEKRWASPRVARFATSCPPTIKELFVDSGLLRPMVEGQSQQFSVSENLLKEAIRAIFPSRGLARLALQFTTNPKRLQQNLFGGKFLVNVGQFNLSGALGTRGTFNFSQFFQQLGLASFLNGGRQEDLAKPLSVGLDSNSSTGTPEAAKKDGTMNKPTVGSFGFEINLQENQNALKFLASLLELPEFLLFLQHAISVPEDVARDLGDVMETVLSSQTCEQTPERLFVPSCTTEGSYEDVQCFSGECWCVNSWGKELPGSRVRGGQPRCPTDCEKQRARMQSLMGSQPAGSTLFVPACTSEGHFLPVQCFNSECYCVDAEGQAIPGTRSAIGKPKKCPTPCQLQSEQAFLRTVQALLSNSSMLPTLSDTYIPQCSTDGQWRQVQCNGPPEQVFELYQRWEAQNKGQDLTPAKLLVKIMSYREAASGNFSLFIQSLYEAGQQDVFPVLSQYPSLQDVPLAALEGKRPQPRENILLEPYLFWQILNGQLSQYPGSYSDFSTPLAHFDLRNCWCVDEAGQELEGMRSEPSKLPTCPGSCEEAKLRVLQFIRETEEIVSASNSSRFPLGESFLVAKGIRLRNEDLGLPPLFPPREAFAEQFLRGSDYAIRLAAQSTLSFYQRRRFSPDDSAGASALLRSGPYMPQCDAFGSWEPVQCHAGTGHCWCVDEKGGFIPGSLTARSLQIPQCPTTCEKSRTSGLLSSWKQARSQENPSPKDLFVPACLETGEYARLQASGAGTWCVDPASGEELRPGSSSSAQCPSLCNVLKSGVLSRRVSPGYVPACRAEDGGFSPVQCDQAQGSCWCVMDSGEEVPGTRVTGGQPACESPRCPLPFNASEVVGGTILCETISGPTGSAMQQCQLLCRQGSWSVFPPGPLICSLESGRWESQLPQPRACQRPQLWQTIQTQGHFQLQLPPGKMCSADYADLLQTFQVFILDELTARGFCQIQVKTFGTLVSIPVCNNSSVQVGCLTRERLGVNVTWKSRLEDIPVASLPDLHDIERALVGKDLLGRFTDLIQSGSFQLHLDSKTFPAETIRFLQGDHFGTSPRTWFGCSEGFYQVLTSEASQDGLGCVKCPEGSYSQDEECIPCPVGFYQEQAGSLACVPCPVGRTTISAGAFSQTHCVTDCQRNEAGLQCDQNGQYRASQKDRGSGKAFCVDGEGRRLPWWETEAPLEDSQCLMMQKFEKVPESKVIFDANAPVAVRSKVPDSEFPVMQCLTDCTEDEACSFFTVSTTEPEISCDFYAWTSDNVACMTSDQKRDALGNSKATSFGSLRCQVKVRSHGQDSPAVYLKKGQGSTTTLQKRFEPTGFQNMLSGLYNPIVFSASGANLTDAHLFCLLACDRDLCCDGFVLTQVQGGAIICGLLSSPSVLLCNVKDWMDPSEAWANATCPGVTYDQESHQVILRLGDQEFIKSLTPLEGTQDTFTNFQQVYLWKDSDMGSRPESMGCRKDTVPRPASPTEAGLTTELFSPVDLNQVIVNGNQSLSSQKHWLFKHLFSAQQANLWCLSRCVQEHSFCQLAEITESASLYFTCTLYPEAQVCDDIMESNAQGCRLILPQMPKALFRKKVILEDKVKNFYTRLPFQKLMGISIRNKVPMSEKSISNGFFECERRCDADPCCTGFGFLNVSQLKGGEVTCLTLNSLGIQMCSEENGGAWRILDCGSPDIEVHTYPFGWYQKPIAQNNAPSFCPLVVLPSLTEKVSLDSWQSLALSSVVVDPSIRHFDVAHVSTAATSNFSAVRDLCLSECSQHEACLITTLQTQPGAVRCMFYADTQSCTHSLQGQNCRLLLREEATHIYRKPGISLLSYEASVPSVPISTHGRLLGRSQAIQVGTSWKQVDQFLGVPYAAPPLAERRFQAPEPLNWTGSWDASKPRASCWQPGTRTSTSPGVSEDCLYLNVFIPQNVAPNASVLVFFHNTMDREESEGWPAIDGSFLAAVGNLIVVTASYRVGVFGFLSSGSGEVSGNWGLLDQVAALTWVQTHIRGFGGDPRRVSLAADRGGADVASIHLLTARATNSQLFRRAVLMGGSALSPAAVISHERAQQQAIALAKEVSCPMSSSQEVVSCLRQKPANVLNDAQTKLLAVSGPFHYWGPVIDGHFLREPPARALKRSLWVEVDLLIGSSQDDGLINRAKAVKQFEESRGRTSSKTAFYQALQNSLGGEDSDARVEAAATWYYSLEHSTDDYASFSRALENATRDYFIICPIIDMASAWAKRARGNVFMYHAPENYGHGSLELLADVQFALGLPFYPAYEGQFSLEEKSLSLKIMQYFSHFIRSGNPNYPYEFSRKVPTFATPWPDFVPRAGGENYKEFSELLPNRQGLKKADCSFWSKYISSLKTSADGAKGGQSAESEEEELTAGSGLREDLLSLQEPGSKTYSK
FLAG-tagged thyroglobulin A2234D (P01266, form named): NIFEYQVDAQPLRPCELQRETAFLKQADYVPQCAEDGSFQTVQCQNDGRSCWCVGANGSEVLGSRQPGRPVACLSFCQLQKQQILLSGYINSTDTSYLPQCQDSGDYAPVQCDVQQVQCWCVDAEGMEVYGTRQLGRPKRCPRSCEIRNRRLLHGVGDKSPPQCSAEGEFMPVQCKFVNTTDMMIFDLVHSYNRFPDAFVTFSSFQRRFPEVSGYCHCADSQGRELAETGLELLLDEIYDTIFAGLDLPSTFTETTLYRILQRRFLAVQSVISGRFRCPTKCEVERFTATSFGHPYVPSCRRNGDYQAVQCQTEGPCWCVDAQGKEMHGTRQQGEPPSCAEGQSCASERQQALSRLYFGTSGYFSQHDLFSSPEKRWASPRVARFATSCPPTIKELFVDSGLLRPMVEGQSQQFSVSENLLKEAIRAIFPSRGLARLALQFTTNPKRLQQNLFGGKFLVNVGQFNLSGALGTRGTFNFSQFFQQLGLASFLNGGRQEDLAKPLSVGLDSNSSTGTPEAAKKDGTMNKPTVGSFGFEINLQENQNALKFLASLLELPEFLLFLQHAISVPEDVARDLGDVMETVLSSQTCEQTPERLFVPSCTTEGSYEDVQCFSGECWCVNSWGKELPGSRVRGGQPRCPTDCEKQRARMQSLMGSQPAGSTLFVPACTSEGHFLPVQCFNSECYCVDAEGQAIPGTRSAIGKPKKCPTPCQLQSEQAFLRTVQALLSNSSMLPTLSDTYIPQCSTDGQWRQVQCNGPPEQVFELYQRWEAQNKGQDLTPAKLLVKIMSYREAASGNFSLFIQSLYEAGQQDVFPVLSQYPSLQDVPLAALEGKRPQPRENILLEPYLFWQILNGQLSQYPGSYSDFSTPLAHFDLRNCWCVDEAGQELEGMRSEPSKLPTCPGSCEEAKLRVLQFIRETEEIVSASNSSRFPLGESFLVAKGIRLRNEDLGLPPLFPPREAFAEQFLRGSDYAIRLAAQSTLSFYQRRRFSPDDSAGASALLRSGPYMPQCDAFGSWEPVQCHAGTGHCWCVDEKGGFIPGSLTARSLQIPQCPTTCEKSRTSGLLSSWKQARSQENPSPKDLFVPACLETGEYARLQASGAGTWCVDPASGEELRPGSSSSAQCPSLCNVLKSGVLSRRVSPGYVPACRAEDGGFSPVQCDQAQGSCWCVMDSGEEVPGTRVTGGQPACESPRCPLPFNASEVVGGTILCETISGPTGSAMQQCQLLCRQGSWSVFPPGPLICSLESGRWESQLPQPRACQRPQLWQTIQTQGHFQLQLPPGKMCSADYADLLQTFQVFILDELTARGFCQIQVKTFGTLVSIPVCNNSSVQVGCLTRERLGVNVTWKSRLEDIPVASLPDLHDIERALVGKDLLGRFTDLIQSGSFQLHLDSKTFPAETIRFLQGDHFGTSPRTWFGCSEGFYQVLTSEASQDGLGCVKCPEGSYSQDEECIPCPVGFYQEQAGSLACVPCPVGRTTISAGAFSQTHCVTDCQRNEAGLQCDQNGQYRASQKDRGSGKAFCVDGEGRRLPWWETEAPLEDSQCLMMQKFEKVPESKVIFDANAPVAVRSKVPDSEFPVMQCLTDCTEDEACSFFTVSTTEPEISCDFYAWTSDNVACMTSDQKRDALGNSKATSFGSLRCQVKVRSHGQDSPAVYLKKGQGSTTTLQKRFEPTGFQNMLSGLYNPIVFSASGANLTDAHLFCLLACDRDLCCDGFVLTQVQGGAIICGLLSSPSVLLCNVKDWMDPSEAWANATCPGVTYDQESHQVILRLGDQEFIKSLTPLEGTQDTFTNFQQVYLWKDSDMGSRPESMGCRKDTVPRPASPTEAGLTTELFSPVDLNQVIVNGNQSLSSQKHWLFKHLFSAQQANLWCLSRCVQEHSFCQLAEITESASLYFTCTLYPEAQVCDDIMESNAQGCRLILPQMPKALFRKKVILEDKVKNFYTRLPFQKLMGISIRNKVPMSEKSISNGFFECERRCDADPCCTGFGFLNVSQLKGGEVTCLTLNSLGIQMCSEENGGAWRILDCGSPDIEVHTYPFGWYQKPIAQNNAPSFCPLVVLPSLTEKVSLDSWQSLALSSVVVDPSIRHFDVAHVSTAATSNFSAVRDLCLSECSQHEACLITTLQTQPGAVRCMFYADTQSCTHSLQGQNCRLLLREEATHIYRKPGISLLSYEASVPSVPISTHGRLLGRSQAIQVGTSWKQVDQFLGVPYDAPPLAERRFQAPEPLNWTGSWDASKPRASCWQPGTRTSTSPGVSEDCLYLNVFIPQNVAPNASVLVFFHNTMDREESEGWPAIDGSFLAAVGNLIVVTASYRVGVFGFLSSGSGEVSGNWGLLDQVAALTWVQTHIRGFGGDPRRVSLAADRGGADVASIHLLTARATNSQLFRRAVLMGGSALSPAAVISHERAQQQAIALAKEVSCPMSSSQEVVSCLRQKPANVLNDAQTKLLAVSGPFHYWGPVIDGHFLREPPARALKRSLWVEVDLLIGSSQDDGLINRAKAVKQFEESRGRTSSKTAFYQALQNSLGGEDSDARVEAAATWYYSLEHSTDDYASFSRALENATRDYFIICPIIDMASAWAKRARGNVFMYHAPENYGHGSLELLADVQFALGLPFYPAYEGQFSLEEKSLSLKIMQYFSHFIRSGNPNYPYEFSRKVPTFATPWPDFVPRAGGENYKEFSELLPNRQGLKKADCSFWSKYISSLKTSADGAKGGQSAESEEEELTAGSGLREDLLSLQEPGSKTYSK

B1: protein disulfide isomerase family A member 6 (protein, UniProt Q15084 20-440)
chain: LYSSSDDVIELTPSNFNREVIQSDSLWLVEFYAPWCGHCQRLTPEWKKAATALKDVVKVGAVDADKHHSLGGQYGVQGFPTIKIFGSNKNRPEDYQGGRTGEAIVDAALSALRQLVKDRLGGRSGGYSSGKQGRSDSSSKKDVIELTDDSFDKNVLDSEDVWMVEFYAPWCGHCKNLEPEWAAAASEVKEQTKGKVKLAAVDATVNQVLASRYGIRGFPTIKIFQKGESPVDYDGGRTRSDIVSRALDLFSDNAPPPELLEIINEDIAKRTCEEHQLCVVAVLPHILDTGAAGRNSYLEVLLKLADKYKKKMWGWLWTEAGAQSELETALGIGGFGYPAMAAINARKMKFALLKGSFSEQGINEFLRELSFGRGSTAPVGGGAFPTIVEREPWDGRDGELPVEDDIDLSDVELDDLGKDEL
B2: ER degradation enhancing alpha-mannosidase-like 3 (protein, UniProt Q9BZQ6 42-932)
chain: EPMSREEKQKLGNQVLEMFDHAYGNYMEHAYPADELMPLTCRGRVRGQEPSRGDVDDALGKFSLTLIDSLDTLVVLNKTKEFEDAVRKVLRDVNLDNDVVVSVFETNIRVLGGLLGGHSLAIMLKEKGEYMQWYNDELLQMAKQLGYKLLPAFNTTSGLPYPRINLKFGIRKPEARTGTETDTCTACAGTLILEFAALSRFTGATIFEEYARKALDFLWEKRQRSSNLVGVTINIHTGDWVRKDSGVGAGIDSYYEYLLKAYVLLGDDSFLERFNTHYDAIMRYISQPPLLLDVHIHKPMLNARTWMDALLAFFPGLQVLKGDIRPAIETHEMLYQVIKKHNFLPEAFTTDFRVHWAQHPLRPEFAESTYFLYKATGDPYYLEVGKTLIENLNKYARVPCGFAAMKDVRTGSHEDRMDSFFLAEMFKYLYLLFADKEDIIFDIEDYIFTTEAHLLPLWLSTTNQSISKKNTTSEYTELDDSNFDWTCPNTQILFPNDPLYAQSIREPLKNVVDKSCPRGIIRVEESFRSGAKPPLRARDFMATNPEHLEILKKMGVSLIHLKDGRVQLVQHAIQAASSIDAEDGLRFMQEMIELSSQQQKEQQLPPRAVQIVSHPFFGRVVLTAGPAQFGLDLSKHKETRGFVASSKPSNGCSELTNPEAVMGKIALIQRGQCMFAEKARNIQNAGAIGGIVIDDNEGSSSDTAPLFQMAGDGKDTDDIKIPMLFLFSKEGSIILDAIREYEEVEVLLSDKAKDRDPEMENEEQPSSENDSQNQSGEQISSSSQEVDLVDQESSEENSLNSHPESLSLADMDNAASISPSEQTSNPTENHETTNLNGECTDLDNQLQEQSETEEDSNPNVSWGKKVQPIDSILADWNEDIEAFEMMEKDEL
B3: RAD-dependent oxidoreductase domain containing 2 (protein, UniProt Q8IWF2 27-684)
chain: VPPRRDYCVLGAGPAGLQMAYFLQRAGRDYAVFERAPRPGSFFTRYPRHRKLISINKRYTGKANAEFNLRHDWNSLLSHDPRLLFRHYSRAYFPDARDMVRYLGDFADTLGLRVQYNTTIAHVTLDKDRQAWNGHYFILTDQKGQVHQCSVLFVATGLSVPNQVDFPGSEYAEGYESVSVDPEDFVGQNVLILGRGNSAFETAENILGVTNFIHMLSRSRVRLSWATHYVGDLRAINNGLLDTYQLKSLDGLLESDLTDLAILKDSKGKFHVTPKFFLEEANTNQSADSITLPQDDNDNFAMRVPYDRVIRCLGWNFDFSIFNKSLRLNSGNAFGKKYPLIRASYESKGSRGLFILGTASHSVDYRKSAGGFIHGFRYTVRAVHRLLEHRHHSVTWPATELPITQLTSSIVRRVNEASGLYQMFGVLADVILLKENSTAFEYLEEFPIQMLAQLETLTGRKAKHGLFVINMEYGRNFSGPDKDVFFDDRSVGHTEDAWQSNFLHPVIYYYRYLPTEQEVRFRPAHWPLPRPTAIHHIVEDFLTDWTAPIGHILPLRRFLENCLDTDLRSFYAESCFLFALTRQKLPPFCQQGYLRMQGLVSTESLWQHRVESRLLRDYAPTGRRLEDSSQQLGDQEPLGSPLAPGPLAQSVDSNKEEL

Target: FLAG-tagged thyroglobulin, WT (human) (UniProt P01266)
Assay: affinity purification with mass spectrometry; FLAG-Tg variants transiently expressed in HEK293 cells; cells cross-linked with 0.5 mM DSP, RIPA lysate, M2 anti-flag agarose or G1 Anti-DYKDDDDK resin overnight at 4 °C, four RIPA washes; TMT sixplex LC-MS/MS against mock AP (untagged Tg, EGFP or tdTomato)

binding | Binder
binds | B1
binds | B2
binds | B3

Target: FLAG-tagged thyroglobulin A2234D (human) (UniProt P01266)
Assay: as above

binding | Binder
binds | B1
binds | B2
binds | B3

Target: FLAG-tagged thyroglobulin L2284P (human) (UniProt P01266)
Assay: as above

binding | Binder
binds | B1
binds | B2
binds | B3

Target: FLAG-tagged thyroglobulin C1264R (human) (UniProt P01266)
Assay: as above

binding | Binder
binds | B1
binds | B2
binds | B3

Target: FLAG-tagged thyroglobulin G2341R (human) (UniProt P01266)
Assay: as above

binding | Binder
binds | B1
binds | B2
binds | B3
